IC50 data for three compounds are collected here from ChEMBL document CHEMBL3436046, “Predictive model for L-type channel inhibition: multichannel block in QT prolongation risk assessment” (J Appl Toxicol, 2012).

By UniProt entry, the sequences of proteins in these tests, tags left out.
UniProt P22002, whole entry: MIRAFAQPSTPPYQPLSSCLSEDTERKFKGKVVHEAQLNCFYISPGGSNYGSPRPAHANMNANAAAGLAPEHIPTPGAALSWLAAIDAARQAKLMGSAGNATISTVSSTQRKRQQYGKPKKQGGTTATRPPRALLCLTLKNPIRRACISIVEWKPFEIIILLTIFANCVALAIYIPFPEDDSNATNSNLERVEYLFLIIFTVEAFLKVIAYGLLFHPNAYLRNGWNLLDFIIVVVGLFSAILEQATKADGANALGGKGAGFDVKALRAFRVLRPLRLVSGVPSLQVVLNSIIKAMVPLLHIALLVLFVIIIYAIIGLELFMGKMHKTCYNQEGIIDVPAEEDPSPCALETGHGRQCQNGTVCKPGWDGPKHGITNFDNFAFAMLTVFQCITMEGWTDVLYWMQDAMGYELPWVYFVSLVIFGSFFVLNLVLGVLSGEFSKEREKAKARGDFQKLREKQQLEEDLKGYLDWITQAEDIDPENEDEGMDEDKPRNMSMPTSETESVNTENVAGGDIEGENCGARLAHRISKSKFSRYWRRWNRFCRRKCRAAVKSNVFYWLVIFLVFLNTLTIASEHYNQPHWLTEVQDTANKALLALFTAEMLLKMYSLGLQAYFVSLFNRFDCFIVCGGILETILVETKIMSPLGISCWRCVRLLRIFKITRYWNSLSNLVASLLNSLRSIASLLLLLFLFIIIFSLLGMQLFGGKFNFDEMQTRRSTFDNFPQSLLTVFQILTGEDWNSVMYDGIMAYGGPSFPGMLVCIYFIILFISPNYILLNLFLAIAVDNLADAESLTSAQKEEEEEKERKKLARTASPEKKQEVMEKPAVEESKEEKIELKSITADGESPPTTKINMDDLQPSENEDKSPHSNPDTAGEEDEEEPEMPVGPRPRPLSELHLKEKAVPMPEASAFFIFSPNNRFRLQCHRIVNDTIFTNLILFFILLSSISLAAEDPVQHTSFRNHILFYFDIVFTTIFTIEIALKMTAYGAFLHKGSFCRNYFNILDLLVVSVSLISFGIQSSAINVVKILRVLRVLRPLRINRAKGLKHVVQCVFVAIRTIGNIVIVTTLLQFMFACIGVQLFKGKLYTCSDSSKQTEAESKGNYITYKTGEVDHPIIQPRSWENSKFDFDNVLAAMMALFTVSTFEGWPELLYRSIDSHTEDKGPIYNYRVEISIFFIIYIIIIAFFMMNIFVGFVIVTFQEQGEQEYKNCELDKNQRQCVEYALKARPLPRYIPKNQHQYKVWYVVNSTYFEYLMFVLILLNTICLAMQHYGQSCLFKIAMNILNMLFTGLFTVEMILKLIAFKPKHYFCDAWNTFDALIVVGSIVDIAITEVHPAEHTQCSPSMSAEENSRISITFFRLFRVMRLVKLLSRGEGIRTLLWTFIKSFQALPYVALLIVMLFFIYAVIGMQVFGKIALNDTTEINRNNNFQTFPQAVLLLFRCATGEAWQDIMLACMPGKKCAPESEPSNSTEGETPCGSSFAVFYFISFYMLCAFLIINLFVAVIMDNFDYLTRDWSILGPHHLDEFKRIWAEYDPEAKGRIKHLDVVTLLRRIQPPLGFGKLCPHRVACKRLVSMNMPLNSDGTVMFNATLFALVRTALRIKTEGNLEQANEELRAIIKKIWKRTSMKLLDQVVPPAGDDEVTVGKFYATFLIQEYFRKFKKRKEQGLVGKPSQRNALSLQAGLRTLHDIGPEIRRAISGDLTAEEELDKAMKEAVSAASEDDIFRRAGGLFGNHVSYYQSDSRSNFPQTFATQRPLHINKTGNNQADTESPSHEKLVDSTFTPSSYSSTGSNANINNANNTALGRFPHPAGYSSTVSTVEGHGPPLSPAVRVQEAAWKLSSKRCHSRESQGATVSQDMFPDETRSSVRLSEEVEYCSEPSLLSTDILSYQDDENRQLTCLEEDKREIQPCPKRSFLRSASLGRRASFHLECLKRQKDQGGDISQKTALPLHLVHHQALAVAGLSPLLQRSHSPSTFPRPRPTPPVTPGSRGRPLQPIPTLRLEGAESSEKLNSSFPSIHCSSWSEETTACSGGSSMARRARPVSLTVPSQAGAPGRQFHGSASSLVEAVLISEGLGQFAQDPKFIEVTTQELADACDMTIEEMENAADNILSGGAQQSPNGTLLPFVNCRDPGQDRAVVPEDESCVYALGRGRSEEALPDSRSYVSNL
UniProt Q13936, whole entry: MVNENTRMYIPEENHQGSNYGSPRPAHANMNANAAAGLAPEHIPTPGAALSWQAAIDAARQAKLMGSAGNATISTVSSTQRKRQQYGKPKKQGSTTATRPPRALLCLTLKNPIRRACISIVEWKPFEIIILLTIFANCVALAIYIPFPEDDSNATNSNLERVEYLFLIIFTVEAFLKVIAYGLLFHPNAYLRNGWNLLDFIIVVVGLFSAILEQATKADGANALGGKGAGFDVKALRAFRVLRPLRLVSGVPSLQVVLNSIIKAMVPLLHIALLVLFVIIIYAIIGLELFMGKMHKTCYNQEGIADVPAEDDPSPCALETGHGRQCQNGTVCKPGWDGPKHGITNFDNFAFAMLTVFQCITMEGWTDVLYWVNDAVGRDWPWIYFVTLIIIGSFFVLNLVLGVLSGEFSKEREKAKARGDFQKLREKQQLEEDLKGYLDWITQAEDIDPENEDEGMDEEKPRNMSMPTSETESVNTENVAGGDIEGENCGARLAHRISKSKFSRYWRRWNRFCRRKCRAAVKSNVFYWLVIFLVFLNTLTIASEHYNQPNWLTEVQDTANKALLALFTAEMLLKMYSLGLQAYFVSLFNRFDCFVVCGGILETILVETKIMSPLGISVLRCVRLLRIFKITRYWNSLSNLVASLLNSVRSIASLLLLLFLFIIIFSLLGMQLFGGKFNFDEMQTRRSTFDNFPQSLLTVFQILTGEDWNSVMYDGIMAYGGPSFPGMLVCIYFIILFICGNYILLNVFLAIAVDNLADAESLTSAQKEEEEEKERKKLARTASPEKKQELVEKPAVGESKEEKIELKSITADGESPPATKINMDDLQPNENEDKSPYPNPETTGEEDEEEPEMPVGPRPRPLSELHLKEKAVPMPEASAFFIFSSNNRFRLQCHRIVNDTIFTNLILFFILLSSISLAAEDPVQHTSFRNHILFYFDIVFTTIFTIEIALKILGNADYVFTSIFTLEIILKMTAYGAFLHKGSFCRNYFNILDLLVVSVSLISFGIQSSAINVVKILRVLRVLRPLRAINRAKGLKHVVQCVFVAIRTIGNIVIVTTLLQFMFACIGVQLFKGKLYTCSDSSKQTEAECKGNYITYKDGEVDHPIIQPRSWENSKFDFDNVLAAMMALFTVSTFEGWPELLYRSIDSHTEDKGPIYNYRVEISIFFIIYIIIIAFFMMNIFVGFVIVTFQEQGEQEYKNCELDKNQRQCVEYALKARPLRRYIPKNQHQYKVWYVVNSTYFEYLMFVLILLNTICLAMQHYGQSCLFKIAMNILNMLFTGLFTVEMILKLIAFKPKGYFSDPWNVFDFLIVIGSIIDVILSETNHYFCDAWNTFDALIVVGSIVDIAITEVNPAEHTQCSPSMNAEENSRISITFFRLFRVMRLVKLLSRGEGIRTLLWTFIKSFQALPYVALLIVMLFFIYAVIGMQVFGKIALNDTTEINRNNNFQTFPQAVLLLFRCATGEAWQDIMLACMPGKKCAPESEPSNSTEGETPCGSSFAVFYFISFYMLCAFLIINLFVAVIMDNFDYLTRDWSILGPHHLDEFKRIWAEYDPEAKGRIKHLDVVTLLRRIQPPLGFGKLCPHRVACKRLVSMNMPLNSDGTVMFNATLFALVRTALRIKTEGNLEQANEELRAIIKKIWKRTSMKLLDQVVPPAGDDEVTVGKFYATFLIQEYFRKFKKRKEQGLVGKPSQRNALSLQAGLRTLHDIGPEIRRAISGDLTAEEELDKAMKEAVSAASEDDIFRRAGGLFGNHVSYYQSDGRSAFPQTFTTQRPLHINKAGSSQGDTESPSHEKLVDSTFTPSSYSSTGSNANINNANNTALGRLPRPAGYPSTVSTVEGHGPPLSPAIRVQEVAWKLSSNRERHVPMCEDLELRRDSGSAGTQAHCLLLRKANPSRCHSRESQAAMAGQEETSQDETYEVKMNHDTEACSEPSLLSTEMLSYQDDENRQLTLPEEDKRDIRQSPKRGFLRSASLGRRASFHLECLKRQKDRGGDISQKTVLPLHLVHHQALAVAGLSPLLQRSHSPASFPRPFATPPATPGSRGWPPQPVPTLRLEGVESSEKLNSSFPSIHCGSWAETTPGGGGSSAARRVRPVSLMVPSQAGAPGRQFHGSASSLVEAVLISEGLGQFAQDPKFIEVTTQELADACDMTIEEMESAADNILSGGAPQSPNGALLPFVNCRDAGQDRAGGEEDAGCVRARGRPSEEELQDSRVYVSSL
UniProt O35505, whole entry: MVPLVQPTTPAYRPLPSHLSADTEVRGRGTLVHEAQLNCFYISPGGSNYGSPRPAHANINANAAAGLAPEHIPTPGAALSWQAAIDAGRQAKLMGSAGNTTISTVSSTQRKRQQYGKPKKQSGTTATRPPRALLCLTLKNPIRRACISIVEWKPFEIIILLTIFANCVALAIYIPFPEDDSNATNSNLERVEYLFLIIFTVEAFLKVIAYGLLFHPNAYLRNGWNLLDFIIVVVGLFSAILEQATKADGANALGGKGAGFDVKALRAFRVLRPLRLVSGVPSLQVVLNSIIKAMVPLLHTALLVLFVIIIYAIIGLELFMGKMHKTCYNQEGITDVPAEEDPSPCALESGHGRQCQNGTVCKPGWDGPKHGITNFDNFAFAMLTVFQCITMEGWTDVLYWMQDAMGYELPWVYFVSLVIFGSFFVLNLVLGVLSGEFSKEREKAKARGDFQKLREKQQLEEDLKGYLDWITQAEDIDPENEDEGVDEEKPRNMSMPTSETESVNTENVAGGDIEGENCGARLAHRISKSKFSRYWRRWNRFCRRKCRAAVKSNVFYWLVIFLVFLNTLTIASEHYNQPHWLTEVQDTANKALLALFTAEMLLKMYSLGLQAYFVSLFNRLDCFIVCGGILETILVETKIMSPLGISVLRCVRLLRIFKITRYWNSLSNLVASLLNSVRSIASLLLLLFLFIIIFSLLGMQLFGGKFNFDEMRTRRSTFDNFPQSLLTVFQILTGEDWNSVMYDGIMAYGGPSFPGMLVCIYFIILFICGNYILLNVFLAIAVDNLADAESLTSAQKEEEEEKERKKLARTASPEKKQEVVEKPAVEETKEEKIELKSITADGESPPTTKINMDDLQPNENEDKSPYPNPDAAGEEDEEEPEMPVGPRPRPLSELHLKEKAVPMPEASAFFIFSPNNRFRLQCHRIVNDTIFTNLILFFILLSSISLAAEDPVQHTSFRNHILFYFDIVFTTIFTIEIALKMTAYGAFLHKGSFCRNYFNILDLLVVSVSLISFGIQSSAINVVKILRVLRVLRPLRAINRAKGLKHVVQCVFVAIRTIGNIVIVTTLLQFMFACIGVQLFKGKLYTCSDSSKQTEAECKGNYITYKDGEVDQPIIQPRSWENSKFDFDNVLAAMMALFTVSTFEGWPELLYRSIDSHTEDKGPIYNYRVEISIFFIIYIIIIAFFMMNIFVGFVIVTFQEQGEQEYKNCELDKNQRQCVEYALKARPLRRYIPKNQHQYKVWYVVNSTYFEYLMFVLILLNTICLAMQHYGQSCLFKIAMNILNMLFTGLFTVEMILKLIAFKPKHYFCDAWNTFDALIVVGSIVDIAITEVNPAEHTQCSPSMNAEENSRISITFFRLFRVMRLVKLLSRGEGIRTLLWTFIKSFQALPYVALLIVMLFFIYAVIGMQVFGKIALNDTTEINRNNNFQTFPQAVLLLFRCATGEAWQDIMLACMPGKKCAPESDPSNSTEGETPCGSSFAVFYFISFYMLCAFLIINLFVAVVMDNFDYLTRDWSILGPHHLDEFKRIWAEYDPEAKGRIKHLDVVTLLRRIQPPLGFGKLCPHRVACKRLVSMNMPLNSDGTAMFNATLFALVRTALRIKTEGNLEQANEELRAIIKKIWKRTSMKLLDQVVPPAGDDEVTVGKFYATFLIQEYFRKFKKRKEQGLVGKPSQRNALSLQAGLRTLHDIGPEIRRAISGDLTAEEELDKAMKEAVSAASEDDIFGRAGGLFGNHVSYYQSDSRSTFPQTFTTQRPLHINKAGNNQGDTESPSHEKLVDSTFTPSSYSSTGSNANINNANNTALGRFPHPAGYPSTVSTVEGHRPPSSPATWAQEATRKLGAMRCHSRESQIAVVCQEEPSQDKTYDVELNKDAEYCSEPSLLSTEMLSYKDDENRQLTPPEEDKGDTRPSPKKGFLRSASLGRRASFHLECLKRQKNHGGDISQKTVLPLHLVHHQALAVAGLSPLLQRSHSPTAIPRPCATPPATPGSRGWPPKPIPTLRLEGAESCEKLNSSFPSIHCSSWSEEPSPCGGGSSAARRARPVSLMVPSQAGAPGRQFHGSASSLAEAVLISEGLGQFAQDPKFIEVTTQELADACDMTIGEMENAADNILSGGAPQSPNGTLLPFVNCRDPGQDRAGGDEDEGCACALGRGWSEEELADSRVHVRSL

In test [1] the target is Voltage-dependent L-type calcium channel subunit alpha-1C (Rattus norvegicus, UniProt P22002). The experiment in a line: Inhibition of L-type calcium channel measured using whole-cell patch clamp in rat ventricular myocytes.
The target in test [2] is Voltage-dependent L-type calcium channel subunit alpha-1C (Homo sapiens, UniProt Q13936). As to the kind of experiment: Inhibition of L-type calcium channel measured using […] kidney cells heterologically expressing alpha-1C subunit. Further details: ca sol conc 10 mM, temp room. In kind it is functional, cell-based, HEK293.
In test [3] the target is Voltage-dependent L-type calcium channel subunit alpha-1C (Cavia porcellus, UniProt O35505). As to the kind of experiment: Inhibition of L-type calcium channel measured using whole-cell patch clamp in guinea pig ventricular myocytes.

As for `CNCCCC12CCC(c3ccccc31)c1ccccc12` [MAPROTILINE], the IC50 in test [1] worked out at 31 µM.

Take `CC(C)NCC(O)COc1cccc2ccccc12` (stereo not drawn) [PROPRANOLOL]: the IC50 in test [2] worked out at 21 µM.

On to `Cc1nc2n(c(=O)c1CCN1CCC(c3noc4cc(F)ccc34)CC1)CCCC2` [RISPERIDONE], for which, in test [3], the half-maximal inhibitory concentration (IC50) was 116 µM.
